Data set [1] is described as follows: Fmoc solid-phase peptide synthesis; 2-chlorotrityl chloride resin (Merck) for probe 2; arginine AOMK building block bound to resin through a hydrazone linka. To be noted: whole synthesis, based on Fmoc-loading of resin 3.
Data set [2] can be described thus: general procedure: Fmoc solid-phase peptide synthesis; 2-chlorotrityl chloride resin (Merck) for probe 2; arginine AOMK building block bound to resin through a hydrazone linka. To be noted: whole synthesis, based on Fmoc-loading of resin 3.

“(BODIPY-FL)-LRSR-AOMK (BODIPY-FL N-terminal label, AOMK warhead)” displayed an isolated yield in data set [1] of 3.5%.

The substance “FITC-LRSR-AOMK (FITC N-terminal label, AOMK warhead)” yielded an isolated yield in data set [1] of 7.6%.

In turn, Ac-Lys(biotin)-LRSR-AOMK came in with an isolated yield in data set [2] of 1.9%.

The values are drawn from US10502741B2 (Helmholtz Zentrum München Deutsches Forschungszentrum für …, priority 2014, dated 2019).
